Measurements as given in article PMC11229512.
No constants are given. Whether binding was seen depends on the method and setting. Binding seen in cells or lysates may run through a third protein. Here binding means that the protein was enriched with, or labelled near, the bait; the list need not be complete.

The chains behind the UniProt entries cited, without tags or fusion partners. Where a name states a change or a piece, a line headed by the entry shows the natural chain unless it says otherwise. Residues count along the entry.
UniProt Q8N3Z3: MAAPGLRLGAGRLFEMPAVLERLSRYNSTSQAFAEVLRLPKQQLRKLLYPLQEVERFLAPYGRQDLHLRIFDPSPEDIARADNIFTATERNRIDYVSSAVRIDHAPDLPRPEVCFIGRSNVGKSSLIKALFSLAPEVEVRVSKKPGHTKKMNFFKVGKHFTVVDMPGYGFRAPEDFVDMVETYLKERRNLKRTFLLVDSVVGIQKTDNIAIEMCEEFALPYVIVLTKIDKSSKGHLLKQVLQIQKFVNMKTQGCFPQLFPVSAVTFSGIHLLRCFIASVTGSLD
UniProt A4D1E9: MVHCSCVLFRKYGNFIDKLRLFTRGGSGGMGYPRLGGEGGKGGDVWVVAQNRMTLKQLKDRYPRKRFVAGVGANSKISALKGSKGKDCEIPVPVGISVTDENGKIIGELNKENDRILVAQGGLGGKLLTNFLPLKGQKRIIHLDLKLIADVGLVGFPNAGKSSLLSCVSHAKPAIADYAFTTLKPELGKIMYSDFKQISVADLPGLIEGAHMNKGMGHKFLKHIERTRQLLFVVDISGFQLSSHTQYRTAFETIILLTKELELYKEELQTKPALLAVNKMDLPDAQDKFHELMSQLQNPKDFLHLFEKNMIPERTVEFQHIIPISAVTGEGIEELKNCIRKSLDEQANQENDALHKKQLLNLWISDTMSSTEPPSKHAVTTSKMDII
UniProt Q8WVM0, residues 28-346: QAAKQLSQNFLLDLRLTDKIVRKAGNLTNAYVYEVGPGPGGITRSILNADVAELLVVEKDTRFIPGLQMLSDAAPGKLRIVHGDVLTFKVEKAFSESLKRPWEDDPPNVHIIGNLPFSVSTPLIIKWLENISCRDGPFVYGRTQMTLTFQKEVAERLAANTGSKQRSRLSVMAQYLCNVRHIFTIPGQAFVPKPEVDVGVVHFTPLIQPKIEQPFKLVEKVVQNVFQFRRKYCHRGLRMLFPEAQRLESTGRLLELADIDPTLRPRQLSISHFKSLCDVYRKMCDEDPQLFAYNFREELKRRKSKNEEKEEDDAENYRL

Target: C-terminal FLAG-tagged GTPBP8 (human) (UniProt Q8N3Z3)
Assay: affinity purification with mass spectrometry; FLAG-IP (Sigma-Aldrich kit) of GTPBP8::FLAG from mitochondrial lysate of HEK293 induced with 50 ng/ml doxycycline for 48 h; buffers with 5 mM MgCl2; elution with 3X FLAG peptides; LFQ mass spectrometry against mtLuc::FLAG control; thresholds log2FC > 3 and adj. p-value < 0.05

GTPBP10 (from UniProt A4D1E9 1-387)
binding: binds

TFB1M (from UniProt Q8WVM0 28-346)
binding: binds

B1: MRM3 (protein, UniProt Q9HC36 41-420)
chain: VFPSGEVVEQKRAPGKQPRKAPSEASAQEQREKQPLEESASRAPSTWEESGLRYDKAYPGDRRLSSVMTIVKSRPFREKQGKILLEGRRLISDALKAGAVPKMFFFSRLEYLKELPVDKLKGVSLIKVKFEDIKDWSDLVTPQGIMGIFAKPDHVKMTYPKTQLQHSLPLLLICDNLRDPGNLGTILRSAAGAGCSKVLLTKGCVDAWEPKVLRAGMGAHFRMPIINNLEWETVPNYLPPDTRVYVADNCGLYAQAEMSNKASDHGWVCDQRVMKFHKYEEEEDVETGASQDWLPHVEVQSYDSDWTEAPAAVVIGGETYGVSLESLQLAESTGGKRLLIPVVPGVDSLNSAMAASILLFEGKRQLRGRAEDLSRDRSYH
binding: binds

B2: DHX30 (protein, UniProt Q7L2E3 1-1194)
chain: MFSLDSFRKDRAQHRQRQCKLPPPRLPPMCVNPTPGGTISRASRDLLKEFPQPKNLLNSVIGRALGISHAKDKLVYVHTNGPKKKKVTLHIKWPKSVEVEGYGSKKIDAERQAAAAACQLFKGWGLLGPRNELFDAAKYRVLADRFGSPADSWWRPEPTMPPTSWRQLNPESIRPGGPGGLSRSLGREEEEDEEEELEEGTIDVTDFLSMTQQDSHAPLRDSRGSSFEMTDDDSAIRALTQFPLPKNLLAKVIQIATSSSTAKNLMQFHTVGTKTKLSTLTLLWPCPMTFVAKGRRKAEAENKAAALACKKLKSLGLVDRNNEPLTHAMYNLASLRELGETQRRPCTIQVPEPILRKIETFLNHYPVESSWIAPELRLQSDDILPLGKDSGPLSDPITGKPYVPLLEAEEVRLSQSLLELWRRRGPVWQEAPQLPVDPHRDTILNAIEQHPVVVISGDTGCGKTTRIPQLLLERYVTEGRGARCNVIITQPRRISAVSVAQRVSHELGPSLRRNVGFQVRLESKPPSRGGALLFCTVGILLRKLQSNPSLEGVSHVIVDEVHERDVNTDFLLILLKGLQRLNPALRLVLMSATGDNERFSRYFGGCPVIKVPGFMYPVKEHYLEDILAKLGKHQYLHRHRHHESEDECALDLDLVTDLVLHIDARGEPGGILCFLPGWQEIKGVQQRLQEALGMHESKYLILPVHSNIPMMDQKAIFQQPPVGVRKIVLATNIAETSITINDIVHVVDSGLHKEERYDLKTKVSCLETVWVSRANVIQRRGRAGRCQSGFAYHLFPRSRLEKMVPFQVPEILRTPLENLVLQAKIHMPEKTAVEFLSKAVDSPNIKAVDEAVILLQEIGVLDQREYLTTLGQRLAHISTDPRLAKAIVLAAIFRCLHPLLVVVSCLTRDPFSSSLQNRAEVDKVKALLSHDSGSDHLAFVRAVAGWEEVLRWQDRSSRENYLEENLLYAPSLRFIHGLIKQFSENIYEAFLVGKPSDCTLASAQCNEYSEEEELVKGVLMAGLYPNLIQVRQGKVTRQGKFKPNSVTYRTKSGNILLHKSTINREATRLRSRWLTYFMAVKSNGSVFVRDSSQVHPLAVLLLTDGDVHIRDDGRRATISLSDSDLLRLEGDSRTVRLLKELRRALGRMVERSLRSELAALPPSVQEEHGQLLALLAELLRGPCGSFDVRKTADD
binding: binds

B3: MTERF3 (protein, UniProt Q96E29 69-417)
chain: SSQSTSSSSQENNSAQSSLLPSMNEQSQKTQNISSFDSELFLEELDELPPLSPMQPISEEEAIQIIADPPLPPASFTLRDYVDHSETLQKLVLLGVDLSKIEKHPEAANLLLRLDFEKDIKQMLLFLKDVGIEDNQLGAFLTKNHAIFSEDLENLKTRVAYLHSKNFSKADVAQMVRKAPFLLNFSVERLDNRLGFFQKELELSVKKTRDLVVRLPRLLTGSLEPVKENMKVYRLELGFKHNEIQHMITRIPKMLTANKMKLTETFDFVHNVMSIPHHIIVKFPQVFNTRLFKVKERHLFLTYLGRAQYDPAKPNYISLDKLVSIPDEIFCEEIAKASVQDFEKFLKTL
binding: binds

B4: NOA1 (protein, UniProt Q8NC60 1-698)
chain: MLPARLPFRLLSLFLRGSAPTAARHGLREPLLERRCAAASSFQHSSSLGRELPYDPVDTEGFGEGGDMQERFLFPEYILDPEPQPTREKQLQELQQQQEEEERQRQQRREERRQQNLRARSREHPVVGHPDPALPPSGVNCSGCGAELHCQDAGVPGYLPREKFLRTAEADGGLARTVCQRCWLLSHHRRALRLQVSREQYLELVSAALRRPGPSLVLYMVDLLDLPDALLPDLPALVGPKQLIVLGNKVDLLPQDAPGYRQRLRERLWEDCARAGLLLAPGHQGPQRPVKDEPQDGENPNPPNWSRTVVRDVRLISAKTGYGVEELISALQRSWRYRGDVYLVGATNAGKSTLFNTLLESDYCTAKGSEAIDRATISPWPGTTLNLLKFPICNPTPYRMFKRHQRLKKDSTQAEEDLSEQEQNQLNVLKKHGYVVGRVGRTFLYSEEQKDNIPFEFDADSLAFDMENDPVMGTHKSTKQVELTAQDVKDAHWFYDTPGITKENCILNLLTEKEVNIVLPTQSIVPRTFVLKPGMVLFLGAIGRIDFLQGNQSAWFTVVASNILPVHITSLDRADALYQKHAGHTLLQIPMGGKERMAGFPPLVAEDIMLKEGLGASEAVADIKFSSAGWVSVTPNFKDRLHLRGYTPEGTVLTVRPPLLPYIVNIKGQRIKKSVAYKTKKPPSLMYNVRKKKGKINV
binding: binds

B5: METTL17 (protein, UniProt Q9H7H0 28-456)
chain: AALVPGVTQVDNKSGFLQKRPHRQHPGILKLPHVRLPQALANGAQLLLLGSAGPTMENQVQTLTSYLWSRHLPVEPEELQRRARHLEKKFLENPDLSQTEEKLRGAVLHALRKTTYHWQELSYTEGLSLVYMAARLDGGFAAVSRAFHEIRARNPAFQPQTLMDFGSGTGSVTWAAHSIWGQSLREYMCVDRSAAMLVLAEKLLKGGSESGEPYIPGVFFRQFLPVSPKVQFDVVVSAFSLSELPSKADRTEVVQTLWRKTGHFLVLVENGTKAGHSLLMDARDLVLKGKEKSPLDPRPGFVFAPCPHELPCPQLTNLACSFSQAYHPIPFSWNKKPKEEKFSMVILARGSPEEAHRWPRITQPVLKRPRHVHCHLCCPDGHMQHAVLTARRHGRDLYRCARVSSWGDLLPVLTPSAFPPSTAQDPSES
binding: binds

B6: ERAL1 (protein, UniProt O75616 44-437)
chain: VSCVAGSAFSGPRLASASRSNGQGSALDHFLGFSQPDSSVTPCVPAVSMNRDEQDVLLVHHPDMPENSRVLRVVLLGAPNAGKSTLSNQLLGRKVFPVSRKVHTTRCQALGVITEKETQVILLDTPGIISPGKQKRHHLELSLLEDPWKSMESADLVVVLVDVSDKWTRNQLSPQLLRCLTKYSQIPSVLVMNKVDCLKQKSVLLELTAALTEGVVNGKKLKMRQAFHSHPGTHCPSPAVKDPNTQSVGNPQRIGWPHFKEIFMLSALSQEDVKTLKQYLLTQAQPGPWEYHSAVLTSQTPEEICANIIREKLLEHLPQEVPYNVQQKTAVWEEGPGGELVIQQKLLVPKESYVKLLIGPKGHVISQIAQEAGHDLMDIFLCDVDIRLSVKLLK
binding: binds

B7: TRMT10C (protein, UniProt Q7L0Y3 40-403)
chain: MSSKIPAVTYPKNESTPPSEELELDKWKTTMKSSVQEECVSTISSSKDEDPLAATREFIEMWRLLGREVPEHITEEELKTLMECVSNTAKKKYLKYLYTKEKVKKARQIKKEMKAAAREEAKNIKLLETTEEDKQKNFLFLRLWDRNMDIAMGWKGAQAMQFGQPLVFDMAYENYMKRKELQNTVSQLLESEGWNRRNVDPFHIYFCNLKIDGALHRELVKRYQEKWDKLLLTSTEKSHVDLFPKDSIIYLTADSPNVMTTFRHDKVYVIGSFVDKSMQPGTSLAKAKRLNLATECLPLDKYLQWEIGNKNLTLDQMIRILLCLKNNGNWQEALQFVPKRKHTGFLEISQHSQEFINRLKKAKT
binding: binds

B8: MTPAP (protein, UniProt Q9NVV4 38-582)
chain: KDLRRDEQPSGSVETGFEDKIPKRRFSEMQNERREQAQRTVLIHCPEKISENKFLKYLSQFGPINNHFFYESFGLYAVVEFCQKESIGSLQNGTHTPSTAMETAIPFRSRFFNLKLKNQTSERSRVRSSNQLPRSNKQLFELLCYAESIDDQLNTLLKEFQLTEENTKLRYLTCSLIEDMAAAYFPDCIVRPFGSSVNTFGKLGCDLDMFLDLDETRNLSAHKISGNFLMEFQVKNVPSERIATQKILSVLGECLDHFGPGCVGVQKILNARCPLVRFSHQASGFQCDLTTNNRIALTSSELLYIYGALDSRVRALVFSVRCWARAHSLTSSIPGAWITNFSLTMMVIFFLQRRSPPILPTLDSLKTLADAEDKCVIEGNNCTFVRDLSRIKPSQNTETLELLLKEFFEYFGNFAFDKNSINIRQGREQNKPDSSPLYIQNPFETSLNISKNVSQSQLQKFVDLARESAWILQQEDTDRPSISSNRPWGLVSLLLPSAPNRKSFTKKKSNKFAIETVKNLLESLKGNRTENFTKTSGKRTISTQT
binding: binds

B9: MTERF1 (protein, UniProt Q99551 58-399)
chain: FGVKCHNTDSEPLKNEDLLKNLLTMGVDIDMARKRQPGVFHRMITNEQDLKMFLLSKGASKEVIASIISRYPRAITRTPENLSKRWDLWRKIVTSDLEIVNILERSPESFFRSNNNLNLENNIKFLYSVGLTRKCLCRLLTNAPRTFSNSLDLNKQMVEFLQAAGLSLGHNDPADFVRKIIFKNPFILIQSTKRVKANIEFLRSTFNLNSEELLVLICGPGAEILDLSNDYARRSYANIKEKLFSLGCTEEEVQKFVLSYPDVIFLAEKKFNDKIDCLMEENISISQIIENPRVLDSSISTLKSRIKELVNAGCNLSTLNITLLSWSKKRYEAKLKKLSRFA
binding: binds

B10: RPSUD4 (protein, UniProt Q96CM3 16-377)
chain: NGQGCGSLFTLVSKPFCAAAAASTAINAQRLAEKLRAQKREQDTKKEPVSTNAVQRRVQEIVRFTRQLQRVHPNVLAKALTRGILHQDKNLVVINKPYGLPVHGGPGVQLCITDVLPILAKMLHGHKAEPLHLCHRLDKETTGVMVLAWDKDMAHQVQELFRTRQVVKKYWAITVHVPMPSAGVVDIPIVEKEAQGQQQHHKMTLSPSYRMDDGKMVKVRRSRNAQVAVTQYQVLSSTLSSALVELQPITGIKHQLRVHLSFGLDCPILGDHKYSDWNRLAPQKLSVGTLKKLGLEQSKARYIPLHLHARQLILPALGSGKEELNLVCKLPRFFVHSLHRLRLEMPNEDQNENNEAKCLGAQ
binding: binds

B11: MRM1 (protein, UniProt Q6IN84 21-353)
chain: SHAARHGERPGGEELSRLLLDDLVPTSRLELLFGMTPCLLALQAARRSVARLLLQAGKAGLQGKRAELLRMAEARDIPVLRPRRQKLDTMCRYQVHQGVCMEVSPLRPRPWREAGEASPGDDPQQLWLVLDGIQDPRNFGAVLRSAHFLGVDKVITSRRNSCPLTPVVSKSSAGAMEVMDVFSTDDLTGFLQTKAQQGWLVAGTVGCPSTEDPQSSEIPIMSCLEFLWERPTLLVLGNEGSGLSQEVQASCQLLLTILPRRQLPPGLESLNVSVAAGILLHSICSQRKGFPTEGERRQLLQDPQEPSARSEGLSMAQHPGLSSGPEKERQNEG
binding: binds
